# Some of the results follow.
# Tests used:
# Assay in all cases: glycan array binding signal (z-score within array); higher = stronger binding
# Details in all cases: glycan notation: IUPAC condensed, linker removed
# [1] = target: Fuc(a1-2)[Gal(a1-3)]Gal(b1-4)[Fuc(a1-3)]GlcNAc(b1-3)GalNAc
# In short: (§1)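 Glycan array data came from 3228 arrays in the Consortium for Functional Glycomics database, and only arrays with an available protein sequence were kept. Glycan names were put into IUPAC-condensed notation, and columns mapping to the same glycan were averaged. The binding signal is a within-array Z-score, averaged across arrays of one protein sequence run at different concentrations or buffers and across linkers. A negative Z-score can be read as non-binding.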
# [2] = target: Fuc(a1-2)[Gal(a1-4)]Gal(b1-4)GlcNAc
# In short: as §1
# [3] = target: Fuc(a1-2)[GalNAc(a1-3)]Gal
# In short: as §1
# [4] = target: Fuc(a1-2)[GalNAc(a1-3)]Gal(b1-3)GalNAc(a1-3)[Fuc(a1-2)]Gal(b1-4)GlcNAc
# In short: as §1
# [5] = target: Fuc(a1-2)[GalNAc(a1-3)]Gal(b1-3)GalNAc(b1-3)Gal(a1-4)Gal(b1-4)Glc
# In short: as §1
# [6] = target: Fuc(a1-2)[GalNAc(a1-3)]Gal(b1-3)GlcNAc
# In short: as §1
# [7] = target: Fuc(a1-2)[GalNAc(a1-3)]Gal(b1-3)GlcNAc(b1-2)Man(a1-3)[Fuc(a1-2)[GalNAc(a1-3)]Gal(b1-3)GlcNAc(b1-2)Man(a1-6)]Man(b1-4)GlcNAc(b1-4)GlcNAc
# In short: as §1
# [8] = target: Fuc(a1-2)[GalNAc(a1-3)]Gal(b1-3)GlcNAc(b1-2)Man(a1-3)[Fuc(a1-2)[GalNAc(a1-3)]Gal(b1-3)GlcNAc(b1-2)Man(a1-6)]Man(b1-4)GlcNAc(b1-4)[Fuc(a1-6)]GlcNAc
# In short: as §1
# [9] = target: Fuc(a1-2)[GalNAc(a1-3)]Gal(b1-3)GlcNAc(b1-3)GalNAc
# In short: as §1
# [10] = target: Fuc(a1-2)[GalNAc(a1-3)]Gal(b1-3)GlcNAc(b1-6)GalNAc
# In short: as §1
# [11] = target: Fuc(a1-2)[GalNAc(a1-3)]Gal(b1-4)Glc
# In short: as §1
# [12] = target: Fuc(a1-2)[GalNAc(a1-3)]Gal(b1-4)GlcNAc
# In short: as §1
# [13] = target: Fuc(a1-2)[GalNAc(a1-3)]Gal(b1-4)GlcNAc(b1-2)Man
# In short: as §1
# [14] = target: Fuc(a1-2)[GalNAc(a1-3)]Gal(b1-4)GlcNAc(b1-2)Man(a1-3)[Fuc(a1-2)[GalNAc(a1-3)]Gal(b1-4)GlcNAc(b1-2)Man(a1-6)]Man(b1-4)GlcNAc(b1-4)GlcNAc
# In short: as §1
# [15] = target: Fuc(a1-2)[GalNAc(a1-3)]Gal(b1-4)GlcNAc(b1-2)Man(a1-3)[Fuc(a1-2)[GalNAc(a1-3)]Gal(b1-4)GlcNAc(b1-2)Man(a1-6)]Man(b1-4)GlcNAc(b1-4)[Fuc(a1-6)]GlcNAc
# In short: as §1
# [16] = target: Fuc(a1-2)[GalNAc(a1-3)]Gal(b1-4)GlcNAc(b1-3)Gal(b1-4)GlcNAc
# In short: as §1
# [17] = target: Fuc(a1-2)[GalNAc(a1-3)]Gal(b1-4)GlcNAc(b1-3)Gal(b1-4)GlcNAc(b1-3)Gal(b1-4)GlcNAc
# In short: as §1
# [18] = target: Fuc(a1-2)[GalNAc(a1-3)]Gal(b1-4)GlcNAc(b1-3)GalNAc
# In short: as §1
# [19] = target: Fuc(a1-2)[GalNAc(a1-3)]Gal(b1-4)GlcNAc(b1-3)[Fuc(a1-2)[GalNAc(a1-3)]Gal(b1-4)GlcNAc(b1-6)]GalNAc
# In short: as §1
# [20] = target: Fuc(a1-2)[GalNAc(a1-3)]Gal(b1-4)GlcNAc(b1-6)GalNAc
# In short: as §1
# [21] = target: Fuc(a1-2)[GalNAc(a1-3)]Gal(b1-4)[Fuc(a1-3)]GlcNAc
# In short: as §1
# [22] = target: Fuc(a1-2)[GalNAc(a1-3)]Gal(b1-4)[Fuc(a1-3)]GlcNAc(b1-3)GalNAc
# In short: as §1
# [23] = target: Fuc(a1-2)[GalNAc(a1-4)]Gal(b1-4)GlcNAc
# In short: as §1
# [24] = target: Fuc(a1-2)[GalNAc(b1-3)]Gal
# In short: as §1
# Fuc(a1-3)GlcNAc = target: Fuc(a1-3)GlcNAc
# In short: as §1
# [25] = target: Fuc(a1-3)[Gal(b1-4)]Glc6S
# In short: as §1
# [26] = target: Fuc(a1-3)[Gal(b1-4)]GlcNAc
# In short: as §1
# [27] = target: Fuc(a1-3)[Gal(b1-4)]GlcNAc(b1-2)Man
# In short: as §1
# [28] = target: Fuc(a1-3)[Gal(b1-4)]GlcNAc(b1-2)Man(a1-3)[Fuc(a1-3)[Gal(b1-4)]GlcNAc(b1-2)Man(a1-6)]Man(b1-4)GlcNAc(b1-4)GlcNAc
# In short: as §1
# [29] = target: Fuc(a1-3)[Gal(b1-4)]GlcNAc(b1-2)Man(a1-3)[Fuc(a1-3)[Gal(b1-4)]GlcNAc(b1-2)Man(a1-6)]Man(b1-4)GlcNAc(b1-4)[Fuc(a1-6)]GlcNAc
# In short: as §1
# [30] = target: Fuc(a1-3)[Gal(b1-4)]GlcNAc(b1-3)Gal(b1-3)[Fuc(a1-4)]GlcNAc
# In short: as §1
# [31] = target: Fuc(a1-3)[Gal(b1-4)]GlcNAc(b1-3)Gal(b1-4)[Fuc(a1-3)]GlcNAc
# In short: as §1
# [32] = target: Fuc(a1-3)[Gal(b1-4)]GlcNAc(b1-3)Gal(b1-4)[Fuc(a1-3)]GlcNAc(b1-3)Gal(b1-4)[Fuc(a1-3)]GlcNAc
# In short: as §1
# [33] = target: Fuc(a1-3)[Gal(b1-4)]GlcNAc(b1-3)GalNAc
# In short: as §1
# [34] = target: Fuc(a1-3)[Gal(b1-4)]GlcNAc(b1-6)GalNAc
# In short: as §1
# [35] = target: Fuc(a1-3)[Gal(b1-4)]GlcNAc(b1-6)[Gal(b1-3)GlcNAc(b1-3)]Gal(b1-4)Glc
# In short: as §1
# [36] = target: Fuc(a1-3)[Gal(b1-4)]GlcNAc6S
# In short: as §1
# [37] = target: Fuc(a1-3)[Gal3S(b1-4)]Glc
# In short: as §1
binder,measurement,setting,value
LlpA (Arthrobacter sp) (protein) MGSSHHHHHHSSGLVPRGSHMTLHPETALRPGAAATSPNSRYRLLYQTDGNLVLYGPDGPLWDSGTNGHGAGACIMQADGNLVLYGPNDEYVWDTETDNNPGSRLVIQDDGNAVIYRPDGSPLWATETCQPPGSADSHVLQSGSTLTPTHGIRSANGLYGLLYQTDGNLVFYGPDGPLWDSGTNGRGAGACIMQPDGNLVLYGPHDEYVWDTETDNNPGSRLVIQDDGNAVIYRPDGNPTWVTGTH,glycan array binding signal (z-score),[1],0.472
same,glycan array binding signal (z-score),[2],1.22
same,glycan array binding signal (z-score),[3],-0.082
same,glycan array binding signal (z-score),[4],-0.066
same,glycan array binding signal (z-score),[5],-0.033
same,glycan array binding signal (z-score),[6],0.25
same,glycan array binding signal (z-score),[7],-0.304
same,glycan array binding signal (z-score),[8],-0.119
same,glycan array binding signal (z-score),[9],2.37
same,glycan array binding signal (z-score),[10],-1.27
same,glycan array binding signal (z-score),[11],-0.96
same,glycan array binding signal (z-score),[12],-1.17
same,glycan array binding signal (z-score),[13],-0.746
same,glycan array binding signal (z-score),[14],0.566
same,glycan array binding signal (z-score),[15],1.79
same,glycan array binding signal (z-score),[16],-0.334
same,glycan array binding signal (z-score),[17],0.339
same,glycan array binding signal (z-score),[18],-1.12
same,glycan array binding signal (z-score),[19],-0.209
same,glycan array binding signal (z-score),[20],-1.78
same,glycan array binding signal (z-score),[21],0.016
same,glycan array binding signal (z-score),[22],0.653
same,glycan array binding signal (z-score),[23],1.18
same,glycan array binding signal (z-score),[24],-0.918
same,glycan array binding signal (z-score),Fuc(a1-3)GlcNAc,-0.654
same,glycan array binding signal (z-score),[25],0.121
same,glycan array binding signal (z-score),[26],-0.668
same,glycan array binding signal (z-score),[27],-1.69
same,glycan array binding signal (z-score),[28],1.18
same,glycan array binding signal (z-score),[29],-0.24
same,glycan array binding signal (z-score),[30],-0.714
same,glycan array binding signal (z-score),[31],1.02
same,glycan array binding signal (z-score),[32],0.796
same,glycan array binding signal (z-score),[33],-0.551
same,glycan array binding signal (z-score),[34],-0.86
same,glycan array binding signal (z-score),[35],-0.159
same,glycan array binding signal (z-score),[36],1.84
same,glycan array binding signal (z-score),[37],-0.034

# At a glance, part of the list above.
binder,measurement,setting,value
LlpA (Arthrobacter sp) (protein) MGSSHHHHHHSSGLVPRGSHMTLHPETALRPGAAATSPNSRYRLLYQTDGNLVLYGPDGPLWDSGTNGHGAGACIMQADGNLVLYGPNDEYVWDTETDNNPGSRLVIQDDGNAVIYRPDGSPLWATETCQPPGSADSHVLQSGSTLTPTHGIRSANGLYGLLYQTDGNLVFYGPDGPLWDSGTNGRGAGACIMQPDGNLVLYGPHDEYVWDTETDNNPGSRLVIQDDGNAVIYRPDGNPTWVTGTH,glycan array binding signal (z-score),[26],-0.668
same,glycan array binding signal (z-score),[27],-1.69
